The test deals with L1210 leukemia ip in BDF1 mice, survival T/C. Kind of test: NCI In Vivo Anticancer Drug Screen. Data for tumor model L1210 Leukemia (intraperitoneal) in B6D2F1 (BDF1) mice. The note with it: T/C endpoint: mean survival time, higher T/C = longer survival.
[1] abbreviates: dose: 400.0 mg/kg/injection, schedule: Q04DX002 (ip), vehicle: Klucel (hydroxypropylcellulose) (HPC).
[2] abbreviates: dose: 200.0 mg/kg/injection, schedule: Q01DX009 (ip), vehicle: Klucel (hydroxypropylcellulose) (HPC).
The mark [3] stands for this setting: dose: 400.0 mg/kg/injection, schedule: Q04DX003 (ip), vehicle: Klucel (hydroxypropylcellulose) (HPC).
The mark [4] stands for this setting: dose: 400.0 mg/kg/injection, schedule: Q01DX009 (ip), vehicle: saline with Tween-80.
[5] abbreviates: dose: 400.0 mg/kg/injection, schedule: Q04DX003 (ip), vehicle: saline with Tween-80.
Setting [6] is: dose: 100.0 mg/kg/injection, schedule: Q01DX001 (ip), vehicle: Klucel (hydroxypropylcellulose) (HPC).
[7] abbreviates: dose: 200.0 mg/kg/injection, schedule: Q04DX003 (ip), vehicle: Klucel (hydroxypropylcellulose) (HPC).

The list shows only some results of the screen, not a fair sample: it gathers tests that were run many times, whatever their T/C, doses with no T/C, and many T/C values between a quarter and a half above the control. Other doses and runs of a compound stand elsewhere. T/C: endpoint of the treated group in % of that of the vehicle group. Some doses have a count of surviving animals in place of a T/C: the source files T/C as zero there, which appears to mark a toxic dose or a test without result, not a measured value. Some doses without a T/C left all or most animals alive at the check, yet need not have been tolerated: the source hardly ever lists a survival T/C far under the control, and the zero likely stands for such cases as well. Survivors were counted at the toxicity check, usually on the fifth day, unless a day is given; later deaths do not show. Schedule codes are those of the source, taken here to give the interval after Q, in days (D) or hours (H), and the number of doses after X. Some schedule codes hold Z or #, which are not explained here. For survival time, the PubChem record calls one and a half times the control and up active, and a quarter to a half above the control has no call in these data; cut-offs in other NCI protocols can differ. Some T/C values are followed by the survivors on the day toxicity was checked, most often the fifth; without a count, all were alive then.

For `Clc1ccccc1CSc1ncnc2nc[nH]c12`, the T/C reads like this: (dose: 120.0 mg/kg/injection, schedule: Q01DX009 (ip), vehicle: saline) 126 % of control; (dose: 125.0 mg/kg/injection, schedule: Q01DX Z (ip), vehicle: other) 140 % of control; (dose: 200.0 mg/kg/injection, schedule: Q01DX009 (ip), vehicle: saline) 138 % of control; (dose: 250.0 mg/kg/injection, schedule: Q01DX Z (ip), vehicle: other) 133 % of control; (dose: 400.0 mg/kg/injection, schedule: Q01DX001 (ip), vehicle: acetone) 138 % of control [5 of 6 alive].

Turning to `CC(=O)N(NC(=O)c1cccnc1)C(C)=O`, under “dose: 500.0 mg/kg/injection, schedule: Q01DX Z (oral), vehicle: carboxymethylcellulose (CMC)”, the survivor count is given as 0 of 6.

Take `CCCCN1CCN(CCCC)C1=O`: the survivor count under setting [1] is listed as 2 of 3.

For `CN1C(=O)CC2(CCN(CCc3ccccc3)CC2)C1=O`, the survivor count (dose: 100.0 mg/kg/injection, schedule: Q01DX009 (ip), vehicle: Klucel (hydroxypropylcellulose) (HPC)) is on record as 0 of 6; the survivor count under setting [2] is given as 0 of 6; the survivor count (dose: 400.0 mg/kg/injection, schedule: Q01DX009 (ip), vehicle: Klucel (hydroxypropylcellulose) (HPC)) is recorded as 0 of 6.

For `O=C(ONC1CCC(CC2CCCCC2)CC1)c1ccccc1` (stereo unspecified), the survivor count by setting is: under setting [2], 2 of 6; under setting [3], 0 of 6.

As for `Clc1cc(Cl)nc(N2CC2)n1`, the survivor count is, setting by setting: (dose: 0.05 mg/kg/injection, schedule: Q01DX Z (ip), vehicle: methylcellulose (MC)) 1 of 6; (dose: 1.0 mg/kg/injection, schedule: Q01DX Z (ip), vehicle: methylcellulose (MC)) 2 of 6; (dose: 3.0 mg/kg/injection, schedule: Q01DX Z (ip), vehicle: methylcellulose (MC)) 0 of 6; (dose: 6.0 mg/kg/injection, schedule: Q01DX Z (ip), vehicle: methylcellulose (MC)) 1 of 6; (dose: 12.0 mg/kg/injection, schedule: Q01DX Z (ip), vehicle: methylcellulose (MC)) 0 of 6; (dose: 25.0 mg/kg/injection, schedule: Q01DX009 (ip), vehicle: acetone) 0 of 6. Besides, the survivor count is 0 of 6 (dose: 25.0 mg/kg/injection, schedule: Q01DX Z (ip), vehicle: methylcellulose (MC)); 0 of 6 (dose: 50.0 mg/kg/injection, schedule: Q01DX Z (ip), vehicle: methylcellulose (MC)); 2 of 6 (dose: 50.0 mg/kg/injection, schedule: Q04DX003 (ip), vehicle: saline); 0 of 6 (dose: 100.0 mg/kg/injection, schedule: Q01DX Z (ip), vehicle: methylcellulose (MC)); 0 of 6 (dose: 100.0 mg/kg/injection, schedule: Q04DX003 (ip), vehicle: acetone); 0 of 6 (dose: 200.0 mg/kg/injection, schedule: Q01DX Z (ip), vehicle: methylcellulose (MC)). Moreover, the survivor count reads like this: (dose: 200.0 mg/kg/injection, schedule: Q04DX003 (ip), vehicle: acetone) 0 of 6; (dose: 400.0 mg/kg/injection, schedule: Q04DX003 (ip), vehicle: acetone) 0 of 6.

In the case of `CCOC(=O)c1cc(C)n(-c2ccc(C(=O)O)cc2)c1C`, under setting [3], the survivor count is reported as 0 of 6.

As to `O=C1C(N2CCOCC2)=Cc2cccc3cccc1c23`, the survivor count reads like this: under setting [4], 2 of 6; under setting [5], 0 of 6.

Take `COc1nc(N)nc2c1nnn2C1OC(CO)C(O)C1O` (stereo unspecified): under setting [6], the T/C is 125 % of control. The survivor count under setting [6] is given as 3 of 5; the survivor count (dose: 200.0 mg/kg/injection, schedule: Q01DX001 (ip), vehicle: Klucel (hydroxypropylcellulose) (HPC)) is recorded as 3 of 6; the survivor count (dose: 400.0 mg/kg/injection, schedule: Q01DX001 (ip), vehicle: Klucel (hydroxypropylcellulose) (HPC)) is on record as 0 of 6.

Regarding `CCN(C(=O)c1ccc([N+](=O)[O-])cc1)C(c1ccco1)P(=O)(c1ccccc1)c1ccccc1` (stereo unspecified), the survivor count runs as follows: (dose: 100.0 mg/kg/injection, schedule: Q04DX002 (ip), vehicle: saline with Tween-80) 0 of 3; (dose: 200.0 mg/kg/injection, schedule: Q04DX002 (ip), vehicle: saline with Tween-80) 3 of 3; (dose: 400.0 mg/kg/injection, schedule: Q04DX002 (ip), vehicle: saline with Tween-80) 3 of 3.

With `NC(=O)c1cccc(Cl)n1`, the survivor count (dose: 100.0 mg/kg/injection, schedule: Q04DX002 (ip), vehicle: Klucel (hydroxypropylcellulose) (HPC)) is on record as 1 of 3; the survivor count (dose: 200.0 mg/kg/injection, schedule: Q04DX002 (ip), vehicle: Klucel (hydroxypropylcellulose) (HPC)) was 0 of 3; the survivor count under setting [1] is 0 of 3.

As to `CN(Cc1cnc2nc(N[Si](C)(C)C)nc(N[Si](C)(C)C)c2n1)c1ccc(C(=O)NC(CCC(=O)O[Si](C)(C)C)C(=O)O[Si](C)(C)C)cc1` (stereo unspecified), the T/C runs as follows: (dose: 0.62 mg/kg/injection, schedule: Q01DX009 (ip), vehicle: saline with Tween-80) 131 % of control; (dose: 2.5 mg/kg/injection, schedule: Q01DX009 (ip), vehicle: saline) 137 % of control. Further, the survivor count is reported as 1 of 6 (dose: 10.0 mg/kg/injection, schedule: Q01DX009 (ip), vehicle: saline with Tween-80); 4 of 6 (dose: 20.0 mg/kg/injection, schedule: Q01DX009 (ip), vehicle: saline with Tween-80); 6 of 6 (dose: 20.0 mg/kg/injection, schedule: Q01DX009 (ip), vehicle: saline); 2 of 6 (dose: 40.0 mg/kg/injection, schedule: Q01DX009 (ip), vehicle: saline with Tween-80); 5 of 6 (dose: 40.0 mg/kg/injection, schedule: Q01DX009 (ip), vehicle: saline).

Take `CCCCOCN1COCC1(C)C`: under setting [5], the survivor count is on record as 4 of 6.

Turning to `C/C=C/C(C#N)Nc1ccccc1C(N)=O` (stereo unspecified), the survivor count runs as follows: (dose: 150.0 mg/kg/injection, schedule: Q01DX009 (ip), vehicle: Klucel (hydroxypropylcellulose) (HPC)) 0 of 3; under setting [7], 1 of 6; (dose: 225.0 mg/kg/injection, schedule: Q01DX009 (ip), vehicle: Klucel (hydroxypropylcellulose) (HPC)) 0 of 3; (dose: 335.0 mg/kg/injection, schedule: Q01DX009 (ip), vehicle: Klucel (hydroxypropylcellulose) (HPC)) 0 of 3; under setting [3], 0 of 6.

With `O=S(=O)(NO)c1cccc(S(=O)(=O)NO)c1`, the survivor count (dose: 400.0 mg/kg/injection, schedule: Q01DX009 (ip), vehicle: saline) is recorded as 6 of 6.

Take `COc1cc(/C=C/C=C/C(=O)N2CCCCC2)ccc1O`: the survivor count (dose: 50.0 mg/kg/injection, schedule: Q01DX009 (ip), vehicle: saline with Tween-80) is 3 of 3.

For `CCC(COS(=O)(=O)c1ccc(C)cc1)[N+](=O)[O-]` (stereo unspecified), the survivor count is 3 of 6 (dose: 100.0 mg/kg/injection, schedule: Q04DX003 (ip), vehicle: Klucel (hydroxypropylcellulose) (HPC)); 0 of 6 under setting [7]; 6 of 6 under setting [3].

Turning to `Cc1ccc(CN(C)C)c(C(O)c2ccccc2)c1` (stereo unspecified), the survivor count is given as 1 of 4 (dose: 200.0 mg/kg/injection, schedule: Q01DX001 (ip), vehicle: saline) and 0 of 4 (dose: 400.0 mg/kg/injection, schedule: Q01DX001 (ip), vehicle: saline).

`O=C(NS(=O)(=O)c1ccc(Cl)cc1)c1cccc2ccccc12`: the survivor count by setting is: (dose: 200.0 mg/kg/injection, schedule: Q01DX009 (ip), vehicle: saline with Tween-80) 6 of 6; under setting [4], 0 of 6.

(Values after PubChem BioAssay AID248 (DTP/NCI, 2004).)
